Experiment [1] addresses T1, FLAG-ARF6 (AUXIN RESPONSE FACTOR6), transiently expressed in N. benthamiana (Arabidopsis thaliana) (UniProt Q9ZTX8).
T1 sequence: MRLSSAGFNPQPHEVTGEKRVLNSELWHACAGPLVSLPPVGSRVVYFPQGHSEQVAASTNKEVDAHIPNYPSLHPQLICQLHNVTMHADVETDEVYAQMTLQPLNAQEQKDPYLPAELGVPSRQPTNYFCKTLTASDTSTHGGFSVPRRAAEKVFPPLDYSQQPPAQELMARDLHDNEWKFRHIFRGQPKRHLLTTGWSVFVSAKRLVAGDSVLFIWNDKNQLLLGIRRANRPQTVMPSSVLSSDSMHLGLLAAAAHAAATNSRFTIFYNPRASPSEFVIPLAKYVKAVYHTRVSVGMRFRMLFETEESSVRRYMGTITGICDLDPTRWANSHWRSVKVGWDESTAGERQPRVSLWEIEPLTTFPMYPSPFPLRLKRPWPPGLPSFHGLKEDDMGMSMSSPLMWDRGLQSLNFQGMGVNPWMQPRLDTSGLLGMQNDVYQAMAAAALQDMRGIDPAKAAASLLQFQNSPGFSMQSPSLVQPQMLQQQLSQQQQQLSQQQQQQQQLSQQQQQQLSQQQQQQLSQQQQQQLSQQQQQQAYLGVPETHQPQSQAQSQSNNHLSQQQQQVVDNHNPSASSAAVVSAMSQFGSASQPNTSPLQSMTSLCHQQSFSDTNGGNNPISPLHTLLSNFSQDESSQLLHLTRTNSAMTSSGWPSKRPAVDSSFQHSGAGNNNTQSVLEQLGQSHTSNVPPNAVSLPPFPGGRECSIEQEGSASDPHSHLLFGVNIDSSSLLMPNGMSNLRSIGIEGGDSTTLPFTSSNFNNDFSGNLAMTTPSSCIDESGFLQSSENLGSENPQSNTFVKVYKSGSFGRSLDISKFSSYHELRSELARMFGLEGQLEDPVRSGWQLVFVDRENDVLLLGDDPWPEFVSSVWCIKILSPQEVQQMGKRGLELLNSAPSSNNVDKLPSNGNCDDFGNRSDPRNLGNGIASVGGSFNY
Nature of the experiment: co-IP.

In experiment [2] the target is T2, MED8, yeast two-hybrid fusion (Arabidopsis thaliana) (UniProt Q4V3C1).
T2 sequence: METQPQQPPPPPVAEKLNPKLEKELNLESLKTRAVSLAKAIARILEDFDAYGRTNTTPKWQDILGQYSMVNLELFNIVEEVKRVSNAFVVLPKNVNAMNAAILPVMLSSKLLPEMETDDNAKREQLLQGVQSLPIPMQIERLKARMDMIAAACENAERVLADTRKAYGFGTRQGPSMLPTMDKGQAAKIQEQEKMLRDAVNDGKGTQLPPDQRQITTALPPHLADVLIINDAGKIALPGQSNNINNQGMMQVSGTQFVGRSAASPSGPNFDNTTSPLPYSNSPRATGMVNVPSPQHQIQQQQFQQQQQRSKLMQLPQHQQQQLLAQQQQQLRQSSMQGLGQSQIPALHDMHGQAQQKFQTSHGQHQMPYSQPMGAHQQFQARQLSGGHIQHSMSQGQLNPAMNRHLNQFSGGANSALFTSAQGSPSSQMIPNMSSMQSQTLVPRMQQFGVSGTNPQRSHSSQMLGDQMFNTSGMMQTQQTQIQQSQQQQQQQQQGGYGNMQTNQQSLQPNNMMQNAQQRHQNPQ
Nature of the experiment: two-hybrid.

In experiment [3] the target is T3, MED25, yeast two-hybrid fusion (Arabidopsis thaliana) (UniProt Q7XYY2).
T3 sequence: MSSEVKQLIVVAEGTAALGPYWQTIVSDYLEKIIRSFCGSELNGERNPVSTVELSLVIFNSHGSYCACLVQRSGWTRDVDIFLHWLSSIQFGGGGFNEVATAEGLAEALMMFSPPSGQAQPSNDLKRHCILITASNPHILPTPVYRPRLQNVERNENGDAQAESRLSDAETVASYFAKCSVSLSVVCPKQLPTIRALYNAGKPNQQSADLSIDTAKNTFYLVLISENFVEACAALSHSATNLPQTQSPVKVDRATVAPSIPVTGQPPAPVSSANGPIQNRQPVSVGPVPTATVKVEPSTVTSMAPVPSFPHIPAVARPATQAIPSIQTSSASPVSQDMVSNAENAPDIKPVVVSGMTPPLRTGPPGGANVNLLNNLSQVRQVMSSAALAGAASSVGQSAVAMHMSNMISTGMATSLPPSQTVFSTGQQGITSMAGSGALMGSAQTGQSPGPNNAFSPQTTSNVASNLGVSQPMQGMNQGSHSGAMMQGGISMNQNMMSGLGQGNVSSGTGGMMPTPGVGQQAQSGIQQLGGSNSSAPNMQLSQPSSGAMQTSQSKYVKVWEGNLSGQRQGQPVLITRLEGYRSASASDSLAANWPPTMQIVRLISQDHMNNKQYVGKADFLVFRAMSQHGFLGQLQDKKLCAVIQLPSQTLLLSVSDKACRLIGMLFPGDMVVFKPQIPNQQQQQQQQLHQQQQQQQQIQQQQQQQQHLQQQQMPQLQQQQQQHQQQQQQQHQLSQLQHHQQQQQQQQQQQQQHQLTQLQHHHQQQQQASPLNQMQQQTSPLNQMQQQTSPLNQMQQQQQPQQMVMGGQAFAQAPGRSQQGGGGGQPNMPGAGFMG
The experiment in a line: two-hybrid.

The target in experiment [4] is T4, HA-IAA9^P188S (Arabidopsis thaliana) (UniProt Q38827).
T4 sequence: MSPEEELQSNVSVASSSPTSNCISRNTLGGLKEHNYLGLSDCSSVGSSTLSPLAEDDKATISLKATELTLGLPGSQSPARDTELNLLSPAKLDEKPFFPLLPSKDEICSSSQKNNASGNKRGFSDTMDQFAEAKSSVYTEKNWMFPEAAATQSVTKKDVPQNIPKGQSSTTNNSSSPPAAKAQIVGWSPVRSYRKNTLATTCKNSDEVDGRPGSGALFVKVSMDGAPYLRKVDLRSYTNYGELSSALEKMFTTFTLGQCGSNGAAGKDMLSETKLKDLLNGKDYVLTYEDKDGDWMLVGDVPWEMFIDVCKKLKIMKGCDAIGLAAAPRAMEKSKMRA
The experiment in a line: co-IP.

These are yes or no findings as the source states them, for the method shown. For part of these data: Binding seen in cells or lysates may run through a third protein. Some binding calls cover weakened binding; strength is not graded here. Sequences can lack the tags named with a protein.

The text below walks through data of paper doi:10.1101/2024.06.26.599170.

B1: Myc-ARF8 (AUXIN RESPONSE FACTOR8) (protein, UniProt Q9FGV1 1-811)
chain: MKLSTSGLGQQGHEGEKCLNSELWHACAGPLVSLPSSGSRVVYFPQGHSEQVAATTNKEVDGHIPNYPSLPPQLICQLHNVTMHADVETDEVYAQMTLQPLTPEEQKETFVPIELGIPSKQPSNYFCKTLTASDTSTHGGFSVPRRAAEKVFPPLDYTLQPPAQELIARDLHDVEWKFRHIFRGQPKRHLLTTGWSVFVSAKRLVAGDSVIFIRNEKNQLFLGIRHATRPQTIVPSSVLSSDSMHIGLLAAAAHASATNSCFTVFFHPRASQSEFVIQLSKYIKAVFHTRISVGMRFRMLFETEESSVRRYMGTITGISDLDSVRWPNSHWRSVKVGWDESTAGERQPRVSLWEIEPLTTFPMYPSLFPLRLKRPWHAGTSSLPDGRGDLGSGLTWLRGGGGEQQGLLPLNYPSVGLFPWMQQRLDLSQMGTDNNQQYQAMLAAGLQNIGGGDPLRQQFVQLQEPHHQYLQQSASHNSDLMLQQQQQQQASRHLMHAQTQIMSENLPQQNMRQEVSNQPAGQQQQLQQPDQNAYLNAFKMQNGHLQQWQQQSEMPSPSFMKSDFTDSSNKFATTASPASGDGNLLNFSITGQSVLPEQLTTEGWSPKASNTFSEPLSLPQAYPGKSLALEPGNPQNPSLFGVDPDSGLFLPSTVPRFASSSGDAEASPMSLTDSGFQNSLYSCMQDTTHELLHGAGQINSSNQTKNFVKVYKSGSVGRSLDISRFSSYHELREELGKMFAIEGLLEDPLRSGWQLVFVDKENDILLLGDDPWESFVNNVWYIKILSPEDVHQMGDHGEGSGGLFPQNPTHL
Consider B1, for which, in experiment [1], the binding result is listed as “binds”.

B2: ARF8, yeast two-hybrid fusion (protein, UniProt Q9FGV1 1-811)
chain: B1 chain
B2: the binding result in experiment [2] is given as “binds”; in experiment [3], “no binding”.

B3: ARF6, yeast two-hybrid fusion (protein, UniProt Q9ZTX8 1-935)
chain: T1 sequence
Turning to B3, the binding entry in experiment [2] is “binds”; in experiment [3] it was “no binding”.

B4: Myc-SPY (SPINDLY) (enzyme, UniProt Q96301 1-914)
chain: MVGLEDDTERERSPVVENGFSNGSRSSSSSAGVLSPSRKVTQGNDTLSYANILRARNKFADALALYEAMLEKDSKNVEAHIGKGICLQTQNKGNLAFDCFSEAIRLDPHNACALTHCGILHKEEGRLVEAAESYQKALMADASYKPAAECLAIVLTDLGTSLKLAGNTQEGIQKYYEALKIDPHYAPAYYNLGVVYSEMMQYDNALSCYEKAALERPMYAEAYCNMGVIYKNRGDLEMAITCYERCLAVSPNFEIAKNNMAIALTDLGTKVKLEGDVTQGVAYYKKALYYNWHYADAMYNLGVAYGEMLKFDMAIVFYELAFHFNPHCAEACNNLGVLYKDRDNLDKAVECYQMALSIKPNFAQSLNNLGVVYTVQGKMDAAASMIEKAILANPTYAEAFNNLGVLYRDAGNITMAIDAYEECLKIDPDSRNAGQNRLLAMNYINEGLDDKLFEAHRDWGWRFTRLHPQYTSWDNLKDPERPITIGYISPDFFTHSVSYFIEAPLTHHDYTKYKVVVYSAVVKADAKTYRFRDKVLKKGGVWKDIYGIDEKKIASMVREDKIDILVELTGHTANNKLGTMACRPAPVQVTWIGYPNTTGLPTVDYRITDSLADPPDTKQKQVEELVRLPDCFLCYTPSPEAGPVCPTPALSNGFVTFGSFNNLAKITPKVLQVWARILCAVPNSRLVVKCKPFCCDSIRQRFLTTLEQLGLESKRVDLLPLILFNHDHMQAYSLMDISLDTFPYAGTTTTCESLYMGVPCVTMAGSVHAHNVGVSLLTKVGLGHLVAKNEDEYVQLSVDLASDVTALSKLRMSLRDLMAGSPVCNGPSFAVGLESAYRNMWKKYCKGEVPSLRRMEMLQKEVHDDPLISKDLGPSRVSVTGEATPSLKANGSAPVPSSLPTQSPQLSKRMDSTS
In the case of B4, the binding result in experiment [4] is listed as “binds”.
